In patent US20080119428A1:
Results are given in words; binding and its absence hold for the method and conditions named. In cells and extracts the contact can be indirect. Some results given as binding are weak or reduced against the parent protein; the word gives no strength.

Chains of the proteins cited; added tags and fusions are not shown. Lines headed by an entry give the natural chain unless they say otherwise; changes in a name come on top.
UniProt P07814: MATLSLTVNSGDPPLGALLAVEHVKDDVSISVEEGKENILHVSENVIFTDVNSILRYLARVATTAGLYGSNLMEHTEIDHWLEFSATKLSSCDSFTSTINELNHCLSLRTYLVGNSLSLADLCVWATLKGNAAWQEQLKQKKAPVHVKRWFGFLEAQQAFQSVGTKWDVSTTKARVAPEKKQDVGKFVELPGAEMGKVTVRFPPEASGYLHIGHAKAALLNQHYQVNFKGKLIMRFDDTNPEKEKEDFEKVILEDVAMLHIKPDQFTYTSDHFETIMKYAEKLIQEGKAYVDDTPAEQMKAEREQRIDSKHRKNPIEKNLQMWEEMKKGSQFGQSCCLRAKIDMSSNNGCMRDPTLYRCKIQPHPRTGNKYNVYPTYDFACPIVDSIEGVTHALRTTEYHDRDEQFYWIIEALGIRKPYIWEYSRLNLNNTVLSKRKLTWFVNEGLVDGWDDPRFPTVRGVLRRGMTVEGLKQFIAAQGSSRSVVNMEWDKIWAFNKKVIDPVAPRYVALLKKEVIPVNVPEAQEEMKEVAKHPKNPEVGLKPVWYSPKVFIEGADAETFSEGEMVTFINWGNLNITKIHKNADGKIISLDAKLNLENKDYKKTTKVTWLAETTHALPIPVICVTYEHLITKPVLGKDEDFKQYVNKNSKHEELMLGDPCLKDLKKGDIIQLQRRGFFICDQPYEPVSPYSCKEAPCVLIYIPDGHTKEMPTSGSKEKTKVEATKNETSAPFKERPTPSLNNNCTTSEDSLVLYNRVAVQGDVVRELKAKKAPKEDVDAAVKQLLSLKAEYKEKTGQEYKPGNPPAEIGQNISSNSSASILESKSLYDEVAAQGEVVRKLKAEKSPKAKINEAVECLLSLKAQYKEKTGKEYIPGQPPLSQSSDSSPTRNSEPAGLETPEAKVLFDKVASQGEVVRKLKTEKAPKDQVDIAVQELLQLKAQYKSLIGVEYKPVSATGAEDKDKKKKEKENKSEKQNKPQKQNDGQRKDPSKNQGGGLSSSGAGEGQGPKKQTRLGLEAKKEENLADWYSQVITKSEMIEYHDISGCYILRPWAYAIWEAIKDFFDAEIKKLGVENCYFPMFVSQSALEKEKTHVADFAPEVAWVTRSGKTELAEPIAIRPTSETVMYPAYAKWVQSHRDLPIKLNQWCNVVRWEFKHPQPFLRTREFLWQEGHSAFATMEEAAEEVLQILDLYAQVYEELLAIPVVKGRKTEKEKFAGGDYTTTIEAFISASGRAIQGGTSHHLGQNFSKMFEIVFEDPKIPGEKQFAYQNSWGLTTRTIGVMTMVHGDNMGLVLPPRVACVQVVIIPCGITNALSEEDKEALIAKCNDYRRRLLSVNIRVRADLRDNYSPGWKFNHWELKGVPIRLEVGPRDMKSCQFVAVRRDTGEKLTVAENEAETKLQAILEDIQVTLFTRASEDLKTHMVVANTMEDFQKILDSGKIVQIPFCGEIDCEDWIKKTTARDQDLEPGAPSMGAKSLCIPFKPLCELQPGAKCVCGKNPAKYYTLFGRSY
UniProt Q9NX74: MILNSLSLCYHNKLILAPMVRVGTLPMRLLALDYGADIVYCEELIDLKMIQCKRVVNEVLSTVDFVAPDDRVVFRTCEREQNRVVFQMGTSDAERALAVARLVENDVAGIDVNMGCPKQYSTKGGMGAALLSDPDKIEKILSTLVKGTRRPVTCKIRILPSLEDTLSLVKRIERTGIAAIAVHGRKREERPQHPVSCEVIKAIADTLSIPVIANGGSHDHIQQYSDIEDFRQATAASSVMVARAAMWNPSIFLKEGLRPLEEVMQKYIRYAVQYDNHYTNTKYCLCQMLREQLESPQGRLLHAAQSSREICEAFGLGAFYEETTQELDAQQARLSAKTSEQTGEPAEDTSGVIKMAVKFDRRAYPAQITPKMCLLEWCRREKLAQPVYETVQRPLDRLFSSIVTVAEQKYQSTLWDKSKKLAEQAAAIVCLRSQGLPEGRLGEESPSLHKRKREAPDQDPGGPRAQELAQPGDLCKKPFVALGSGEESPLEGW

Molecular target: EPRS (glutamyl-prolyl tRNA synthetase) (UniProt P07814)
Assay: co-immunoprecipitation and immunocytochemistry in LC319 cells

Substance: endogenous IMS-E21 (URLC8) (from UniProt Q9NX74 1-493) (enzyme)
- binding: binds
